Drawing on article PMC2440817, this text covers binding for two substances.

Sequences of proteins named here, by UniProt entry; tags and fusion partners are left off.
UniProt Q9JIF0: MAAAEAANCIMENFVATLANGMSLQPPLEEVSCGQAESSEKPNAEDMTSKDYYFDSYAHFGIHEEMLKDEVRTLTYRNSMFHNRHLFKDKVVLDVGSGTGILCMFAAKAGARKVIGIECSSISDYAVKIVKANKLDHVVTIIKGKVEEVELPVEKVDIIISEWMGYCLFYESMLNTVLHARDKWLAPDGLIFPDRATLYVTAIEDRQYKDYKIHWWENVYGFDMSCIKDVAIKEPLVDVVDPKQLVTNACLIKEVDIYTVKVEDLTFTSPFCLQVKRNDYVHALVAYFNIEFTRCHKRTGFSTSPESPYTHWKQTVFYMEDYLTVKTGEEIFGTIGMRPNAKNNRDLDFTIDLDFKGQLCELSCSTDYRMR

Where a chain is given by its changes, count along the chain named. No constants are given. Whether binding was seen depends on the method and setting. Binding seen in cells or lysates may run through a third protein. For some assays here: Binding can be weak; no strength is given.

For assay [1], the target named is T1, Receptor interacting protein 140 (RIP140), endogenous (mouse (endogenous in 3T3-L1)) (UniProt Q8CBD1).
T1 sequence: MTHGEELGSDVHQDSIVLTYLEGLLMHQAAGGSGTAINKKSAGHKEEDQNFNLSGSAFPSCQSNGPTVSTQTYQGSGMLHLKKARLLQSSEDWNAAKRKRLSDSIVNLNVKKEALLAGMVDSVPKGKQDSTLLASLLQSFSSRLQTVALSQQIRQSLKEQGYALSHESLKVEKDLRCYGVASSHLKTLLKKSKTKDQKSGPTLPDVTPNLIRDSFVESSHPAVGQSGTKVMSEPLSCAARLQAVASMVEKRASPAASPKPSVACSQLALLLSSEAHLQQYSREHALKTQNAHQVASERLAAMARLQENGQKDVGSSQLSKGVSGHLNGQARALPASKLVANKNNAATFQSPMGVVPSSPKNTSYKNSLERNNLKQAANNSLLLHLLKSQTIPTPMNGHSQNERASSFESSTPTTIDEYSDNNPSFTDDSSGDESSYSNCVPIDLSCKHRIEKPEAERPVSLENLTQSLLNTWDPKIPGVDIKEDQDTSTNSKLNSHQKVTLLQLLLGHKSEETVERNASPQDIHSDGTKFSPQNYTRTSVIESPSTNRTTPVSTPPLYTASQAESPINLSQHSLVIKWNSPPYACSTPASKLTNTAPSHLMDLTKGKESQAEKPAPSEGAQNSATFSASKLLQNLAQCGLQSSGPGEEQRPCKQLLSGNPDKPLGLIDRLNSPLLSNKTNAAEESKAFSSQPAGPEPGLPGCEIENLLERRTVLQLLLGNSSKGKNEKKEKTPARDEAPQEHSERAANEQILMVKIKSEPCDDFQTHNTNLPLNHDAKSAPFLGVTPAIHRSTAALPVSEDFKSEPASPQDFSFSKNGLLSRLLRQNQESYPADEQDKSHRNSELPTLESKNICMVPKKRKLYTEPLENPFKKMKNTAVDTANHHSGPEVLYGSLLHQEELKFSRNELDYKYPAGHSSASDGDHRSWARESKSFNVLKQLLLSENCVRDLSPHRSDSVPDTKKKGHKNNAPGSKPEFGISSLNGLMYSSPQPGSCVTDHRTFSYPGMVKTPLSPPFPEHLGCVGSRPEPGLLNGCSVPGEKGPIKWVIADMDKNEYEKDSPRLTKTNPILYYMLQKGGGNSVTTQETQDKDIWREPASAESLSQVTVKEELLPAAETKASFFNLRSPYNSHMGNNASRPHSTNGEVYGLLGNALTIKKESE
As to the kind of experiment: co-IP; nuclear fraction of differentiating adipocyte cultures, time course of differentiation.

The target in assay [2] is T1, Receptor interacting protein 140 (RIP140), endogenous (mouse (endogenous in 3T3-L1)). As to the kind of experiment: co-IP; endogenous proteins in differentiating adipocyte cultures after siRNA knockdown of PKCε.
For assay [3] the target is unchanged. Description: co-IP; cytoplasmic fraction of differentiating adipocyte cultures, time course of differentiation.
The target of assay [4] is T2, double phospho-mimetic mutant RIP140 (D-CP) expressed in RIP140 null adipocytes (mouse) (UniProt Q8CBD1).
T2 sequence: T1 sequence with S102E, S1003E
Description: co-IP; RIP140 null adipocytes reconstituted with WT, D-CN or D-CP RIP140; association with endogenous 14-3-3 and PRMT1.

Assay [5] addresses T3, wild type RIP140 re-expressed in RIP140 null adipocytes (mouse) (UniProt Q8CBD1).
T3 sequence: T1 sequence
The description is as above.

For assay [6], the target named is T1, Receptor interacting protein 140 (RIP140), endogenous (mouse (endogenous in 3T3-L1)). As to the kind of experiment: co-IP; sequential IP: the RIP140/PRMT1 or RIP140/14-3-3 immuno-complex from differentiated adipocyte extracts was examined for the third partner.
Assay [7] has the same target. Description: co-IP; endogenous proteins in differentiated (8 day) 3T3-L1 adipocyte extracts; IP with antibodies to RIP140, 14-3-3 or PRMT1, protein G-agarose; 150 mM NaCl, 50 mM Tris-HCl pH 8.0, 0.2% NP-40, 0.1% SDS, 4°C overnight; cells untreated or treated with MAPK or PKC activators/inhibitors (PMA, calphostin C), or with siRNA to 14-3-3β or PRMT1.
Assay [8] concerns the target double constitutive negative mutant RIP140 (D-CN) expressed in RIP140 null adipocytes (mouse) (UniProt Q8CBD1). Description: co-IP; RIP140 null adipocytes reconstituted with WT, D-CN or D-CP RIP140; association with endogenous 14-3-3 and PRMT1.

For “14-3-3β, endogenous (mouse (endogenous in 3T3-L1))”, the binding entry is recorded as “binds” in assay [1]; “no binding (only PKCε knocked down by siRNA)” in assay [2]; “no binding (only cytoplasmic fraction)” in assay [3]; “binds” in assay [4]; “binds” in assay [5]; “binds” in assay [6]. Moreover, in assay [7], the binding entry is listed as “binds”.

As to “protein arginine methyl transferase 1 (PRMT1), endogenous (from UniProt Q9JIF0 1-371) (enzyme)”, the binding result in assay [8] is recorded as “no binding”.
